# Measured values as given in PubChem BioAssay AID1439 (NMMLSC, 2008).
# Sequences of proteins named here, by UniProt entry; tags and fusion partners are left off.
# UniProt P09471, whole entry, looked up: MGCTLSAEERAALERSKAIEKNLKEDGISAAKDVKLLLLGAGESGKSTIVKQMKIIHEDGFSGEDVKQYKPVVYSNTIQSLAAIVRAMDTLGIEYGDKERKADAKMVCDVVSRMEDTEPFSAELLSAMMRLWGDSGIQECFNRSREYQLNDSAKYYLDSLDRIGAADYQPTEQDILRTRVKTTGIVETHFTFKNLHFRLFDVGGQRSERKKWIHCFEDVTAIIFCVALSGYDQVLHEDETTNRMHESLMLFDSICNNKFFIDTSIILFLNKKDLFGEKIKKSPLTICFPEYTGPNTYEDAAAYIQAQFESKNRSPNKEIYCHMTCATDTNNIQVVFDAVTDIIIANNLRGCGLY
# Several values for one entry are separate records, joined by “and”; a condition that tells them apart may be missing. Equal entries are not always repeated. About 770 (0.35%) of roughly 220,000 compounds were called active. This list was built around the results that the source calls inconclusive (neither active nor inactive); the mix of calls is not that of the screen. Rule as the data show it: active = binding response below about 49% or above about 150%; inconclusive = no clear call, values can overlap the other calls; inactive = in between.
# Molecular target: Guanine nucleotide-binding protein G(o) subunit alpha (Homo sapiens) (UniProt P09471)
# Assay: RGS7-Galphao binding modulators, primary screen, biochemical, multiplexed bead flow cytometry (AID 1439);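 also: fluorescent Galphao held in activated GDP-AlF4 state binding bead-coupled RGS7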
# Conditions: at 10 µM, actives lie on both sides
row,SMILES,binding response (% of control)
1,Cc1ccc(C(O)P(=O)(OC(C)C)c2ccc(N(C)C)cc2)cc1 (configuration not stated),inconclusive: 112%
2,Cc1c(Cl)c(C(F)(F)F)nn1CC(=O)NCc1ccco1,inactive: 109%
3,Cc1ccc(S(=O)(=O)N2CCOCC2)cc1NC(=O)CN(C)C1CCS(=O)(=O)C1 (configuration not stated),inconclusive: 112%
4,Cc1cc2nc(-c3ccc(SCc4ccccn4)nc3)[nH]c2cc1C,inactive: 100%
5,Cc1cc(C)c2c(N)c(C(=O)N/N=C/c3ccccc3)sc2n1,inconclusive: 119%
6,O=c1c2cc(NC(=S)NCCCN3CCC(Cc4ccccc4)CC3)ccc2nc2n1CCCCC2,inconclusive: 98.3%
7,Cc1ccc(S(=O)(=O)N2CCCCC2)cc1NC(=O)c1ccccn1,inconclusive: 105%
8,O=C(O)CCCCNS(=O)(=O)/C=C/c1ccccc1,inconclusive: 106%
9,CN(C)CCCOC(=O)COc1ccc(Br)cc1,inconclusive: 98.2%
10,CCn1c(-c2cccc(S(=O)(=O)N3CCCC3)c2)n[nH]c1=S,inconclusive: 108%
11,NC(=O)NC(=O)COC(=O)c1cccc(S(=O)(=O)N2CCCCCC2)c1,inconclusive: 82.9%
12,c1ccc2c(c1)Oc1cccc3cccc-2c13,inconclusive: 87.9%
13,CC[C@H](C)[C@H](NC(N)=O)C(=O)Nc1ccc2c(c1)OCO2,inconclusive: 102%
14,CC(=O)N1CCN(c2ccc([N+](=O)[O-])c(NCc3cccnc3)c2)CC1,inconclusive: 107%
15,COc1ccc(O[C@H]2C=C[C@@H](c3ccccc3)O[C@@H]2COC(=O)CC/C(C)=N/O[C@@H](C)c2cc(-c3c(C)cc(C)cc3C)no2)cc1,inactive: 101%
16,O=S(=O)(c1ccc(-c2ccon2)s1)N1CCN(c2ccncc2)CC1,inconclusive: 91.6%
17,O=C1c2ccncc2C(=O)N1CO,active: -10.4%
18,CCOC(=O)c1sc(NN=C(C(=O)OC)C(=O)OC)c(C(=O)OCC)c1C,inactive: 104%
19,Cc1cccc(Nc2nnc(SCC(=O)Nc3ccc(C(=O)O)cc3)s2)c1,inconclusive: 100%
20,O=C(N/N=C/c1cc(Br)cs1)c1c[nH]c2ccccc12,inconclusive: 102%
21,CC(C)CC(=O)c1c[nH]c(C(=O)NCc2cccnc2)c1,inconclusive: 99.3%
22,Cc1ccc(S(=O)(=O)NCC(=O)N(CC(=O)NCC2CCCO2)Cc2ccco2)cc1 (configuration not stated),inactive: 101%
23,O=C(CSc1n[nH]c(=O)[nH]c1=O)Nc1cccc(S(=O)(=O)N2CCOCC2)c1,inconclusive: 98.6%

row,SMILES,binding response (% of control)
1,C[n+]1ccc(C(=O)N/N=C/c2ccco2)cc1,inactive: 98.4%
2,Cc1ccc[n+](C(C)C(=O)Nc2ccc([N+](=O)[O-])cc2C)c1 (configuration not stated),inconclusive: 93.3%
3,COC(=O)c1cc2c(s1)-c1ccc(OC)cc1CC2,inconclusive: 84%
4,Nn1c(SCc2ccc(Br)cc2)nnc1-c1cccnc1,inconclusive: 101%
5,O=c1nc2n(c3ncccc13)CCCCC2,inactive: 103%
6,Cc1ccc(NC(=S)NC(=O)c2ccc(Br)o2)c(C)c1,inconclusive: 93.7%
7,CC(C(=O)NC1=NCCS1)N1C(=O)c2ccccc2C1=O (configuration not stated),inactive: 102%
8,NC(=O)N=Nc1c2[nH]c3ccccc3nc-2c2ccccc12,inconclusive: 88.2%
9,CCNc1nc(NC(C)C)nc(N(C#N)CC(=O)OC)n1,inactive: 98.9%
10,S=c1[nH]c2cc(Br)cnc2[nH]1,inconclusive: 66.4%
11,CCN1CCN(C(c2cccs2)C(C)NC(=S)Nc2cc(C)ccc2C)CC1 (configuration not stated),inconclusive: 105%
12,CCCCCCc1c(O)nc(SCCN(C)C)[nH]c1=O,inconclusive: 81.1%
13,Cn1c(SCc2ccc(F)cc2)nnc1-c1cnccn1,inconclusive: 560%
14,O=S1(=O)CCC(NC(=S)Nc2ccccc2)C1 (configuration not stated),inconclusive: 21.1%
16,COc1ccc(S(=O)(=O)NCC(=O)O)cc1C(=O)NC1CCCCC1,inactive: 88.3%
17,O=C(CSc1nccc(=O)[nH]1)N1N=C2/C(=C/c3ccco3)CCCC2C1c1ccco1 (configuration not stated),inconclusive: 63.8%
18,Cc1cc(=O)[nH]c(-c2ccc(Cl)cc2)n1,inconclusive: 72.5%
19,CN1CC(=O)N(CC(=O)Nc2ccc(Br)cc2F)C1=O,inconclusive: 92.3%
20,CC1S/C(=N/N=C/c2ccco2)N(Cc2ccc(F)cc2)C1=O (configuration not stated),inconclusive: 90.6%
21,c1nc2n(n1)C1=C(CCCC1)C1(CCCCC1)N2,inconclusive: 78.2%
22,CCOc1ccc(-n2cnnn2)cc1S(=O)(=O)N1CCC(C)CC1C (configuration not stated),inconclusive: 101%
23,Oc1ccccc1Nc1nc(NCC2CCCO2)c2ccccc2n1 (configuration not stated),active: 41%

row,SMILES,binding response (% of control)
1,CCCC(=O)N(c1ccc(F)cc1)C1C=CS(=O)(=O)C1 (configuration not stated),inactive: 98.8%
2,COCCCNC(=S)N1CCN(C)CC1,inconclusive: 95.5%
3,CCOC(=O)c1nc(Nc2ccc(N3CCC(C)CC3)cc2)c2ccccc2n1,inactive: 90.8%
4,O=C(c1ccc(C(F)(F)F)cc1)C1CCCN(Cc2cccn2-c2ncccn2)C1 (configuration not stated),inactive: 107%
5,CCn1cc(C(=O)O)c(=O)c2cnc(N3CCN(C(=S)Nc4ccccc4Cl)CC3)nc21,inconclusive: 113%
6,O=C(C[n+]1ccc(/C=C/c2ccccc2)cc1)c1ccc2c(c1)OCCO2,inconclusive: 103%
7,Cc1cc(=O)[nH]c(N/N=C/c2ccc(Cl)c([N+](=O)[O-])c2)n1,inconclusive: 107%
8,COc1ccc(NC(=O)CSc2nncs2)cc1S(N)(=O)=O,inconclusive: 216%
9,COC(=O)c1sc2ccccc2c1C(=O)OC,inactive: 118%
10,CC(=O)Oc1ccc2oc3c(c2c1)C(=O)CCC3,inactive: 98.8%
11,COC(=O)[C@@H]1C[C@@]2(O)[C@H](O)[C@H](O)[C@H](O)C[C@H]2N1Cc1cccc2ccccc12,inconclusive: 80%
12,COc1cc(CNCc2ccc(SC)cc2)cc(OC)c1,inactive: 99.3%
13,Cc1cc(C)c(C#N)c(SCc2ccccc2[N+](=O)[O-])n1,inactive: 106%
14,N#CC1=C(N)NC(=S)C(C(N)=O)C1c1ccccc1F (configuration not stated),inconclusive: 129%
15,CC1=C/C(=C\C=C(C#N)C#N)N(C)c2ccccc21,inconclusive: 115%
16,Fc1ccc(NCc2nnc3n2CCCCC3)cc1,inconclusive: 107%
17,CC(C)CC(=O)N=C1SC2CS(=O)(=O)CC2N1Cc1ccccc1Cl (configuration not stated),inconclusive: 73.7%
18,COc1ccc2c(=O)c3c(=O)n(CCc4ccccc4)c(C(C)C)nc3oc2c1,inconclusive: 59.2%
19,O=[N+]([O-])c1cccnc1Oc1cccnc1,inconclusive: 92.5%
20,COc1ccc(CCCc2nnc(SCC(=O)Nc3nc(C)cs3)n2C)cc1,inactive: 97.9%
21,Cc1ccc(/C=N/NC(=O)CN2C(=O)CSc3ccccc32)o1,inconclusive: 103%
22,O=C(O)C(Cc1ccccc1)N1C(=O)/C(=C/c2cccnc2)SC1=S (configuration not stated),inconclusive: 326%
23,Cc1cccc(NC(=O)c2ccc(NCC3CCCO3)c([N+](=O)[O-])c2)n1 (configuration not stated),inconclusive: 83.3%

# 2 entries from above, set out differently.
row	SMILES	binding response (% of control)
12	COc1cc(CNCc2ccc(SC)cc2)cc(OC)c1	inactive: 99.3%
13	Cc1cc(C)c(C#N)c(SCc2ccccc2[N+](=O)[O-])n1	inactive: 106%

# (further entries)

row,SMILES,binding response (% of control)
1,Cc1ccccc1N=C1NC(=O)/C(=C/c2cccnc2)S1,inconclusive: 94.7%
2,CN1C(N)=NC(=O)/C1=C/c1ccccc1F,inactive: 103%
3,Cc1cc(C)n2nc3nc(N4CCCC4)nc(-c4ccccc4)c3c2n1,inactive: 115%
4,CCCCN(C(=O)COc1ccc(NC(C)=O)cc1)C1CCS(=O)(=O)C1 (configuration not stated),inconclusive: 99.1%
5,CC(Oc1ccc(Cl)cc1Cl)c1nc(-c2ccc(NC(=O)c3ccncc3)cc2)no1 (configuration not stated),inactive: 95.7%
6,O=C(CN1C(=O)C2CC=CCC2C1=O)N1CCN(c2ccc([N+](=O)[O-])cc2)CC1 (configuration not stated),inconclusive: 138%
7,O=C(Nc1ccc(NC(=O)c2cccs2)cc1)c1ccc2c(c1)OCCO2,inconclusive: 87.5%
8,CC(=O)NC(=S)Nc1ccc([N+](=O)[O-])cc1C,inconclusive: 112%
9,CCOC(=O)N1CCC(=NNc2nc3ccccc3s2)CC1,inconclusive: 149%
10,NC(=O)NC(CC(=O)NCCc1ccc(S(N)(=O)=O)cc1)c1ccc(Cl)cc1 (configuration not stated),inconclusive: 89.7%
11,COc1cnc(-c2ccccn2)nc1Sc1c(Cl)cccc1Cl,inactive: 101%
12,CCN(CC)S(=O)(=O)c1ccc(NC(=O)c2nc3nc(C)cc(C)n3n2)cc1,inconclusive: 96.3%
13,CCC(C)NC(=O)COC(=O)c1ccccc1OCC(=O)Nc1ccc(Br)cc1 (configuration not stated),inactive: 98.4%
14,CC(C)CN1CCN(Cc2ccc(CN3CCCCC3)s2)CC1CCO (configuration not stated),inactive: 90%
15,CCn1cnc2sc(C(=O)Nc3ccccc3OC)c(C)c2c1=O,inconclusive: 72.9%
16,Cc1ccc(-c2cc(C(=O)OC3CCOC3=O)c3ccccc3n2)c(C)c1 (configuration not stated),inconclusive: 85.7%
17,Cc1cccc(-c2nc(C#N)c(NCC3CCCO3)o2)c1 (configuration not stated),inconclusive: 93.2%
18,CC1(C)CC(CCN)(Cc2ccccc2Cl)CCO1 (configuration not stated),inconclusive: 103%
19,Cc1ccc(S(=O)(=O)N(C)CCCC(=O)NC(C)(C)C)cc1,inconclusive: 93.8%
20,COc1ccc(OC)c2c(C)c(C)[nH]c12,inconclusive: 77.2%
21,O=C(O)c1cc(O)ccc1NC(=O)c1cccc2ccccc12,inconclusive: 86.2%
22,COc1ccc(C)cc1-n1c(SCC(=O)Nc2cc(C)on2)nc2ccccc2c1=O,inconclusive: 102%
23,NNC(=O)c1csc(-c2ncc(C(F)(F)F)cc2Cl)n1,inconclusive: 188%

# In a second layout: results already given.
row	SMILES	binding response (% of control)
9	CCOC(=O)N1CCC(=NNc2nc3ccccc3s2)CC1	inconclusive: 149%
10	NC(=O)NC(CC(=O)NCCc1ccc(S(N)(=O)=O)cc1)c1ccc(Cl)cc1 (configuration not stated)	inconclusive: 89.7%
11	COc1cnc(-c2ccccn2)nc1Sc1c(Cl)cccc1Cl	inactive: 101%
12	CCN(CC)S(=O)(=O)c1ccc(NC(=O)c2nc3nc(C)cc(C)n3n2)cc1	inconclusive: 96.3%
13	CCC(C)NC(=O)COC(=O)c1ccccc1OCC(=O)Nc1ccc(Br)cc1 (configuration not stated)	inactive: 98.4%
